Laboratory results taken from paper PMC11106511.
Results are given in words; binding and its absence hold for the method and conditions named. In cells and extracts the contact can be indirect.

Protein sequences, listed by entry. Tags and fused reporters are not part of them. Lines headed by an entry give the natural chain unless they say otherwise; changes in a name come on top. Chains listed by the source or under a name are the forms on record and can include a tag or linker.
UniProt P01106: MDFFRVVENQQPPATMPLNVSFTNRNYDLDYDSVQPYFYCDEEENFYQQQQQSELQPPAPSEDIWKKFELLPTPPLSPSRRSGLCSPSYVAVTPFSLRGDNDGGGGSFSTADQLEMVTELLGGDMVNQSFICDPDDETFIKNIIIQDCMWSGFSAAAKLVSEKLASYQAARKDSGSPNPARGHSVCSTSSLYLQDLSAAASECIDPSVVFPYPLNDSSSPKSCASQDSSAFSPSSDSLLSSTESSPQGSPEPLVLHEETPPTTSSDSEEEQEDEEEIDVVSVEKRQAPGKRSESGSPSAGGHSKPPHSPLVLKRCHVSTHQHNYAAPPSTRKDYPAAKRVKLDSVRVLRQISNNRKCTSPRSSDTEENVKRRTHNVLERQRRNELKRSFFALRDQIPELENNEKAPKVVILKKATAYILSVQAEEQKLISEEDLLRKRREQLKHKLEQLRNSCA
UniProt Q92841: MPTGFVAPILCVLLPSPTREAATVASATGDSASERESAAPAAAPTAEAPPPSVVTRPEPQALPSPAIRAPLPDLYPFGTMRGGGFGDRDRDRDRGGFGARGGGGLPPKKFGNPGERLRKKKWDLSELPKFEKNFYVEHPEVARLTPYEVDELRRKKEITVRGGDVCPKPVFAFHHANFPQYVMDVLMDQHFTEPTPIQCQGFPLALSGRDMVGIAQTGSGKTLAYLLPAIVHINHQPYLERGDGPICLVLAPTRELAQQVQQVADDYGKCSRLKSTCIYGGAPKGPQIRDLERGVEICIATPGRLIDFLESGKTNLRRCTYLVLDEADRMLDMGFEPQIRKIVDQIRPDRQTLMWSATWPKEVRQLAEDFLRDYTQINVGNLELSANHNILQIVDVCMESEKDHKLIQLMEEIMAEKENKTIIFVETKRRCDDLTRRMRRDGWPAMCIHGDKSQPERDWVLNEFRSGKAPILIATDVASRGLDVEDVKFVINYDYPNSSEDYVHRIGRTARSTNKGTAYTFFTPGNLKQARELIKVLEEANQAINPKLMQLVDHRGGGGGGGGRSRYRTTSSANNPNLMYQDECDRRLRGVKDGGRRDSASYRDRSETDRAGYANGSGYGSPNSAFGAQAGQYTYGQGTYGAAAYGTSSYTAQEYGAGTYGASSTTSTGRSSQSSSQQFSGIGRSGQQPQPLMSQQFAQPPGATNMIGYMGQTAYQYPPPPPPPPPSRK
UniProt P12956: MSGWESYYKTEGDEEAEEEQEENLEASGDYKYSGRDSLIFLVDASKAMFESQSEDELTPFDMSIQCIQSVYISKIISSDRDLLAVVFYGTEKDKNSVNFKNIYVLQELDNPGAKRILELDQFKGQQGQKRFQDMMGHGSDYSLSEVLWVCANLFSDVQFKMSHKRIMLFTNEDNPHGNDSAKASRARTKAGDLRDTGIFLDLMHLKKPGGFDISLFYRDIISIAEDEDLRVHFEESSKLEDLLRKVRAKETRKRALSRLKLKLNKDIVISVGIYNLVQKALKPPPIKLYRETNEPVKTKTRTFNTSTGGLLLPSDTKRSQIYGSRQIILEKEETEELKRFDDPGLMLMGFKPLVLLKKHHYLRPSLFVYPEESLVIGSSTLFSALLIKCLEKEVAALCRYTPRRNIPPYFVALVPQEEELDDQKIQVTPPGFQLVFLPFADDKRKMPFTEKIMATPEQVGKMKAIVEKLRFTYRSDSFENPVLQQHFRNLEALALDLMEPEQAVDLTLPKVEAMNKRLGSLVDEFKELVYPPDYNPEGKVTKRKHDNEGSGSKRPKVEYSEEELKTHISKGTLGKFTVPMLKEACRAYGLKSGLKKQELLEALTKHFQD
lamin C (LMNC), BiFC construct (P02545-2, form named): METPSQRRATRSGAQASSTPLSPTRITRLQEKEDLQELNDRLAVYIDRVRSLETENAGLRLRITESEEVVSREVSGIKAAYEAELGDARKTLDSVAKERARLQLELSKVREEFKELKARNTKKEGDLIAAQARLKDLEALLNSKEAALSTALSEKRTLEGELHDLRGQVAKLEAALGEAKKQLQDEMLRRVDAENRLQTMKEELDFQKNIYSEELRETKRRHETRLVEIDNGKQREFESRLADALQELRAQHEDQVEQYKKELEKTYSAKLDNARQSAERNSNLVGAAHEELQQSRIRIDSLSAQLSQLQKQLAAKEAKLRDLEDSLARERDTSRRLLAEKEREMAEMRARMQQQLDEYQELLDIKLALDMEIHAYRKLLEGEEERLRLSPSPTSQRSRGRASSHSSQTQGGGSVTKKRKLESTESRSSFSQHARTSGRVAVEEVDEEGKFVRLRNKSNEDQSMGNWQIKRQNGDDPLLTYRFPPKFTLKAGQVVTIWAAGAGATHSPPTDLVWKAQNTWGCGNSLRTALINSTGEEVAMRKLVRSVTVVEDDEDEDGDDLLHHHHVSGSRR

What was measured:
[1] = target: c-Myc phosphorylated at serine 62 (human (endogenous in SH-SY5Y and SK-N-BE(2))) (UniProt P01106); experiment: co-IP; endogenous proteins in SH-SY5Y and SK-N-BE(2) cells, western blot, IgG as negative control; also cells stably transfected with sh-Scb, sh-LMNA #1 or #2, and SH-SY5Y cells treated with lobeline, prochlorperazine, sulphaphenazole or trifluoperazine (20 umol/L, 24 h)
[2] = target: c-Myc phosphorylated at threonine 58 (human (endogenous in SH-SY5Y and SK-N-BE(2))) (UniProt P01106); experiment: as above
[3] = target: c-Myc-VN173 (pBiFC-c-Myc-VN173) (human) (UniProt P01106); experiment: split reporter; BiFC in SK-N-BE(2) cells co-transfected with pBiFC-VN173 and pBiFC-VC155 constructs for 24 h, confocal microscopy; also cells treated with chemicals (20 umol/L, 24 h)

| Substance | binding [1] | binding [2] | binding [3] |
| --- | --- | --- | --- |
| DEAD-box helicase 17 (DDX17) (from UniProt Q92841 1-729) | no binding | no binding | – |
| X-ray repair cross complementing 6 (XRCC6) (from UniProt P12956 1-609) | no binding | no binding | – |
| lamin C (LMNC), BiFC construct (from UniProt P02545-2 1-572) | – | – | no binding |
